# This is one part of the list.
# Chains of the proteins cited; added tags and fusions are not shown.
# UniProt Q0JBA9, entry or part of it: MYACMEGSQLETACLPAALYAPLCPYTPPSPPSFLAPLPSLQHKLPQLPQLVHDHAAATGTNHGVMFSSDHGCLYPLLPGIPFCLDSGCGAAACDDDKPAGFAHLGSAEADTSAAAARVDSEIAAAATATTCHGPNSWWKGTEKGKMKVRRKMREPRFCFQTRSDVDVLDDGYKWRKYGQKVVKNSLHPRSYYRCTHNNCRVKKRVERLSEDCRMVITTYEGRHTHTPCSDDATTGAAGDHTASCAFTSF
# Target: OsWRKY34 (Oryza sativa, UniProt Q0JBA9 1-250)
# Assay: protein-binding microarray (RPBM); PBS, 2% BSA, 51.3 ng/ul salmon testes DNA, 50 uM zinc acetate, 200 nM TF, 25 C, 1 h; high values mean tight binding
# Settings: protein: recombinant; tags: N-terminal polyhistidine and DsRed monomer fusion (pET32a); label: CyDye5-dUTP incorporated in the synthesized complementary strand; 3' TTTTT single-stranded linker to array surface; dsDNA, one strand shown
# Method in brief: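 An Axon 4000B scanner gave the binding signal as per-feature fluorescence intensity in arbitrary units. This followed washing of a custom Agilent array that had been incubated for 1 h at 25 °C with 200 nM protein in PBS, 2% BSA, salmon testes DNA and 50 µM zinc acetate. The proteins were transcription factors fused at the N-terminus to polyhistidine and DsRed, expressed in E. coli BL21-CodonPlus and purified on Ni–NTA.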
row,Sequence,binding signal
1,ATCGGGTTGTTGTTGTGTCATTCTCTGCCAAATGGGCCAGCGGAGTCACCTAGTGCAG,13100 fluorescence intensity (a.u.)
2,GGGGAGGAAAGCATGGTGAAAATTTGCTAAATATTGTGAACGGAGTCACCTAGTGCAG,10800 fluorescence intensity (a.u.)
3,CCTAATTTTTTACCCGATCGACTTCGCCATGGAAAATTTTCGGAGTCACCTAGTGCAG,10700 fluorescence intensity (a.u.)
4,CTACAATTTTGTCTTGGTATATTGCTGCTGGTATTCTTTTCGGAGTCACCTAGTGCAG,11400 fluorescence intensity (a.u.)
5,CCACACTTCCTTTTGATTTTTTCTTTTTTTTCATCCTACCCGGAGTCACCTAGTGCAG,12200 fluorescence intensity (a.u.)
6,TCGGGCGTCCGATCTGGGGTGGGAAAATCGACCACCCACGCGGAGTCACCTAGTGCAG,8140 fluorescence intensity (a.u.)
7,CCATACACCCGCCGCCGCCGCTATCTCACACGTCTCGCCTCGGAGTCACCTAGTGCAG,11400 fluorescence intensity (a.u.)
8,AACTGCATATTGTTGTTGTCATCTTTGTTCAAGGTGCAGGCGGAGTCACCTAGTGCAG,8730 fluorescence intensity (a.u.)
9,AACCTTACAGCCACAGCGAGTCCCTAGCAACAGCATCGAACGGAGTCACCTAGTGCAG,8100 fluorescence intensity (a.u.)
10,CTCTCTCTCTCTCGTTTTCCTCTCCTCTCTCGGTCCTCTCCGGAGTCACCTAGTGCAG,8280 fluorescence intensity (a.u.)
11,CACTCTTATTGATATACTCTTTTGTACAGAGACTAATAGTCGGAGTCACCTAGTGCAG,8110 fluorescence intensity (a.u.)
12,ACTAATATGCCCTTGGAAATCGACGGTTTGGATTATTTCTCGGAGTCACCTAGTGCAG,8520 fluorescence intensity (a.u.)
13,GGGGTGAAGATTTCTGGTATTGAGGATTATGTTGGCTGGTCGGAGTCACCTAGTGCAG,8360 fluorescence intensity (a.u.)
14,GGATGACACGTTCTCTATTCGTTCCAAACCTTATGAACCGCGGAGTCACCTAGTGCAG,9220 fluorescence intensity (a.u.)
15,AAGTAATAAGGAACTTGCGTCAATCGATTTGTTTAGTTTCCGGAGTCACCTAGTGCAG,9520 fluorescence intensity (a.u.)
16,AATTATATTTTTGTTCACAATCAGTACTATGGTTTTTTTTCGGAGTCACCTAGTGCAG,8500 fluorescence intensity (a.u.)
17,TTTAAACCGCTGGGTCTTTTTTACTTGCGAGCTCAACTGTCGGAGTCACCTAGTGCAG,8140 fluorescence intensity (a.u.)
18,TACTTTTTTATAAATACTCTTTTCGTCTCATTTTAAGTACCGGAGTCACCTAGTGCAG,10300 fluorescence intensity (a.u.)
19,ACTTTTTAAAACATGTTTGACCGTTCATCTTATTCAAAAACGGAGTCACCTAGTGCAG,8410 fluorescence intensity (a.u.)
20,CCACTCCTGTCCTGTCATCTTGTACACTATCGCGTTGCTGCGGAGTCACCTAGTGCAG,9040 fluorescence intensity (a.u.)
21,TCCTTGTTTGGGTTGGGTGCGGACTGGGGAAGACGACACGCGGAGTCACCTAGTGCAG,14100 fluorescence intensity (a.u.)

# Retrieved one by one from the list above (3):
row,Sequence,binding signal
2,GGGGAGGAAAGCATGGTGAAAATTTGCTAAATATTGTGAACGGAGTCACCTAGTGCAG,10800 fluorescence intensity (a.u.)
4,CTACAATTTTGTCTTGGTATATTGCTGCTGGTATTCTTTTCGGAGTCACCTAGTGCAG,11400 fluorescence intensity (a.u.)
9,AACCTTACAGCCACAGCGAGTCCCTAGCAACAGCATCGAACGGAGTCACCTAGTGCAG,8100 fluorescence intensity (a.u.)

# Later entries:

row,Sequence,binding signal
1,ATTGCAACAGTTGCCGCCATGTCTTTCACGCGCCTTGCTACGGAGTCACCTAGTGCAG,9860 fluorescence intensity (a.u.)
2,ATAACACATATGTCTCTCTCTATATATGGTCTCATGGTTACGGAGTCACCTAGTGCAG,10800 fluorescence intensity (a.u.)
3,CGTCAAGAGTCGTTGTTTCGTGTCGTCTATATCTCTCCGCCGGAGTCACCTAGTGCAG,9770 fluorescence intensity (a.u.)
4,TGTTGATGGGTAGGTTTTTTCTAAGATGGAAGACATTAATCGGAGTCACCTAGTGCAG,8170 fluorescence intensity (a.u.)
5,AACCCAACTCCACCACCGATCACTTGACTCTCACGCACACCGGAGTCACCTAGTGCAG,13700 fluorescence intensity (a.u.)
6,CCTGTTTTTTCTTTCCGTTTTTATTTGAATTCCCTTTTGACGGAGTCACCTAGTGCAG,9910 fluorescence intensity (a.u.)
7,ATCTCTTAGTTCTGCCATCAGCCACATAGCTTATTTTTAGCGGAGTCACCTAGTGCAG,11300 fluorescence intensity (a.u.)
8,TCTTCCTTTTCCATTATCATGAGCATGTCTTCCCCAAAACCGGAGTCACCTAGTGCAG,8060 fluorescence intensity (a.u.)
9,TGGGCCGCCTACCCATCGTCGCCGTCGCGTTTGCCATCCGCGGAGTCACCTAGTGCAG,9770 fluorescence intensity (a.u.)
10,CCATTTCCATTTCCATTTGTCAGTATTACATAGGCCCTGTCGGAGTCACCTAGTGCAG,8950 fluorescence intensity (a.u.)
11,GACATTCGCTACTTCACCGACTCAACGATGTACTCCACCGCGGAGTCACCTAGTGCAG,8920 fluorescence intensity (a.u.)
12,GCAATTGCCCGTCACGCCTCGTCTTCCTCGTCGTCTTGCACGGAGTCACCTAGTGCAG,13500 fluorescence intensity (a.u.)
13,ACTAATATGTGGGCCCATGATTTTTTTATTTTTCTGGATCCGGAGTCACCTAGTGCAG,9410 fluorescence intensity (a.u.)
14,TATACTTATTTTTCTATTTTTTAGGGTAACTATATATTTTCGGAGTCACCTAGTGCAG,8230 fluorescence intensity (a.u.)
15,TGCTCTAACAATGGCCATGCCTCCCGGCCTCACCTTCTTCCGGAGTCACCTAGTGCAG,9510 fluorescence intensity (a.u.)
16,GTTGGGTGGGGAGCAGGCGGTGCGGTTCGTCGTCGCTGACCGGAGTCACCTAGTGCAG,8140 fluorescence intensity (a.u.)
17,ACGGTTTGATGGAGTTTAGGGGTGCACATTTCTGGTTTTACGGAGTCACCTAGTGCAG,8040 fluorescence intensity (a.u.)
18,GGTGTCACATTGGATGTTTGACCAAATGTCGGAAGGAGTTCGGAGTCACCTAGTGCAG,8410 fluorescence intensity (a.u.)
19,CTACGGTGGAGGCCCAGCCCGGATTCTATTGCTCTCGTTTCGGAGTCACCTAGTGCAG,8160 fluorescence intensity (a.u.)
20,GGGTGATTGAATCCTTGTCATCTAGTGTAAGGCATCTTTCCGGAGTCACCTAGTGCAG,8240 fluorescence intensity (a.u.)
21,GGGAGAGGTGGAGACCAGGAGGTGGGGTGGCGGAGGTCATCGGAGTCACCTAGTGCAG,14300 fluorescence intensity (a.u.)

row,Sequence,binding signal
1,CCACCTTTTCTCTCCACTGCACAGCAACTTCATCAGTCCCCGGAGTCACCTAGTGCAG,10600 fluorescence intensity (a.u.)
2,ACATGGGAATTTTGGTGGGATGGGGATGGGGATGGGGAATCGGAGTCACCTAGTGCAG,34000 fluorescence intensity (a.u.)
3,CACAATCTGCACGCCATATCTGACTACACATATACAACGCCGGAGTCACCTAGTGCAG,8110 fluorescence intensity (a.u.)
4,CACGCCACCATTCGCTGTCGATCTCTGCGTGCGTCTTTGACGGAGTCACCTAGTGCAG,8930 fluorescence intensity (a.u.)
5,CTGGGGCATCTTCTTCATCAGCTCAACCGTGTTCGCACGCCGGAGTCACCTAGTGCAG,14100 fluorescence intensity (a.u.)
6,CTTCCCTTTCACAACGATCGACTTCTGTTCGGTTTTAACTCGGAGTCACCTAGTGCAG,10300 fluorescence intensity (a.u.)
7,TTTTTCGTTTCCTTTCCGTGTTCTTTTTTTTTTCTTCCATCGGAGTCACCTAGTGCAG,10100 fluorescence intensity (a.u.)
8,CCATGTATCACACTCCGTTCATATATTCCTGGGCTGTATTCGGAGTCACCTAGTGCAG,8450 fluorescence intensity (a.u.)
9,TGTCGCTGTGTGCCTCTCTCTCTCTCTCTCCCGTGTCTCTCGGAGTCACCTAGTGCAG,8630 fluorescence intensity (a.u.)
10,TCATAATCCATCTTGTTAAGTGCTTGTGTTCAGATCAATGCGGAGTCACCTAGTGCAG,8170 fluorescence intensity (a.u.)
11,ACTTATAGCTACTGTTCATCGATCGTCCATGACTCCATGCCGGAGTCACCTAGTGCAG,11400 fluorescence intensity (a.u.)
12,TGACTGTACATCCTAGGCCTAGGGCACTTTGTTTTTTTTACGGAGTCACCTAGTGCAG,8990 fluorescence intensity (a.u.)
13,GTAAAGCCCATCTTCTGTTGTGTTCATCTTGCTCGTTCCTCGGAGTCACCTAGTGCAG,9400 fluorescence intensity (a.u.)
14,ACACACTCGCACAAGTTTAGCGACCGCTGGTGCACTTCACCGGAGTCACCTAGTGCAG,8850 fluorescence intensity (a.u.)
15,ACCCATGTGCCCATGCCCGACCCATGCCCGAAAGGGCTATCGGAGTCACCTAGTGCAG,8520 fluorescence intensity (a.u.)
16,GATTTTGAGTTTTTACTTGCAACATTTTACCACTCGTCTTCGGAGTCACCTAGTGCAG,14000 fluorescence intensity (a.u.)
17,CCATTGACTTTTTGTCCAACGTTTGACCATTCGTCTTATTCGGAGTCACCTAGTGCAG,17000 fluorescence intensity (a.u.)
18,ACCACGCATATAAACCGCAGATTATTTTTGTATCGAACGTCGGAGTCACCTAGTGCAG,8060 fluorescence intensity (a.u.)
19,GTGGGAGGGTGGCCGGCTCGTTGCAACCTCGAGCTCTCAACGGAGTCACCTAGTGCAG,12000 fluorescence intensity (a.u.)
20,GCTGTGTGTACATATTACTAGTACTACTTAATACGTGCTTCGGAGTCACCTAGTGCAG,11200 fluorescence intensity (a.u.)
21,TCACCATCATCTCCGCGGCCTTCAAATCCTCCTTCAACTCCGGAGTCACCTAGTGCAG,10100 fluorescence intensity (a.u.)

row,Sequence,binding signal
1,GCCTCGTTTCCATCTCCGCCGCGCTCGCCGCGTTCACACTCGGAGTCACCTAGTGCAG,11400 fluorescence intensity (a.u.)
2,CGGTCTCCAAAAATAATTTTGACCATTATTTTTCATTATACGGAGTCACCTAGTGCAG,8030 fluorescence intensity (a.u.)
3,TCTCTCCCGCCCTTCGAATTGAATGAATCTCTCAATTTCTCGGAGTCACCTAGTGCAG,8380 fluorescence intensity (a.u.)
4,TGTTAGTACTAAGTTTGTAATTTATACTCCCACCGTCTCACGGAGTCACCTAGTGCAG,8510 fluorescence intensity (a.u.)
5,TGAACCAAAATTTTTCGATGGCTACAAATTTCTCCAATTCCGGAGTCACCTAGTGCAG,8680 fluorescence intensity (a.u.)
6,TCTTTTGTAGGATCAATGTTGTTGTATTACTCTCTCATTACGGAGTCACCTAGTGCAG,9430 fluorescence intensity (a.u.)
7,TTTTGTGCTAGTATTCAGGAACTCATCATTCCTGTGTATACGGAGTCACCTAGTGCAG,8060 fluorescence intensity (a.u.)
8,CAATTCTGAAACCGATCTCCTGTGTCCCCAGTGTCAAATTCGGAGTCACCTAGTGCAG,8430 fluorescence intensity (a.u.)
9,TTCTCTGCTCCATTTCTTGCACTCTCCACTTTGCATTCTACGGAGTCACCTAGTGCAG,13100 fluorescence intensity (a.u.)
10,TTTAATACTTCAAATGTATGTCCGTATGCATAATTTTTTTCGGAGTCACCTAGTGCAG,10100 fluorescence intensity (a.u.)
11,TCCATATCTATTTCTCTCTTCCCGCACCTACTACTACACTCGGAGTCACCTAGTGCAG,9020 fluorescence intensity (a.u.)
12,AGTAGCATCCACTTCCACTTCGTCTCTCTCTCTCTCTCCCCGGAGTCACCTAGTGCAG,8150 fluorescence intensity (a.u.)
13,CCTGACTCCTCTCCTGCATTCTCTCGCTTCTGACGGCGGCCGGAGTCACCTAGTGCAG,8100 fluorescence intensity (a.u.)
14,TCTGCCTATGATCTGACTCCTGTAAGCACCTCATTTCCTTCGGAGTCACCTAGTGCAG,8192 fluorescence intensity (a.u.)
15,GATCCGTCCCATGTGGTTCACGTTGACTGCTAATCCAACTCGGAGTCACCTAGTGCAG,11300 fluorescence intensity (a.u.)
16,ACGCCAGCCATGTGTGTGTCTTGTCCGCGTACGTGCGCGCCGGAGTCACCTAGTGCAG,9260 fluorescence intensity (a.u.)
17,TCTTCATGGCTGGGTGGGTTGGTGAAGCTAGGTGGGCGCGCGGAGTCACCTAGTGCAG,14800 fluorescence intensity (a.u.)
18,GTATGATTAATCCGTTCTTCCATATGTAGGTACAATATTACGGAGTCACCTAGTGCAG,9500 fluorescence intensity (a.u.)
19,CCGCAACCTCCCGCCCGTCCCCGCCGACACCGACCACCCCCGGAGTCACCTAGTGCAG,10100 fluorescence intensity (a.u.)
20,CTATCTCTTCTTCTCTCTTTTTCAACTTAGCACAAATCATCGGAGTCACCTAGTGCAG,9080 fluorescence intensity (a.u.)
21,CATCTGCTTCCACCTGAAAATCATGCCAAACACAATACAACGGAGTCACCTAGTGCAG,8480 fluorescence intensity (a.u.)

# An excerpt of these results, with tabs:
row	Sequence	binding signal
18	GTATGATTAATCCGTTCTTCCATATGTAGGTACAATATTACGGAGTCACCTAGTGCAG	9500 fluorescence intensity (a.u.)
19	CCGCAACCTCCCGCCCGTCCCCGCCGACACCGACCACCCCCGGAGTCACCTAGTGCAG	10100 fluorescence intensity (a.u.)
